One experiment has as its system Saos-2. As to the kind of experiment: cell viability (CCK-8) relative to DMSO control (% of control); higher = less cytotoxic. The settings on record: 10 µM; 48 h.
A further experiment deals with U2OS. Described as above. The settings on record: 10 µM; 48 h.

Where a name gives a salt, the structure may show the parent alone. The list shows a part of the results. Most values come without repeats; read them as rough.

For `CC(C)C[C@H](NC(=O)[C@@H](Cc1c[nH]c2ccccc12)NC(=O)[C@H](Cc1ccc(O)cc1)NC(=O)[C@H](CO)NC(=O)[C@H](Cc1c[nH]c2ccccc12)NC(=O)[C@H](Cc1cnc[nH]1)NC(=O)[C@@H]1CCC(=O)N1)C(=O)N[C@@H](CCCN=C(N)N)C(=O)N1CCC[C@H]1C(=O)NCC(N)=O` [Triptorelin Acetate], the values for the cell viability in the experiment with Saos-2 and in the experiment on U2OS were 63.6 and 117, respectively.

As for `CC1=C(C(=O)O)N2C(=O)[C@@H](NC(=O)[C@H](N)c3ccccc3)[C@H]2SC1` [Cephalexin Monohydrate], the cell viability with Saos-2 was 102; with U2OS, 74.4.

Consider `CCN(CC)CCNC(=O)c1ccc(N)cc1` [Procainamide . hydrochloride], for which the cell viability turned out to be 64.5 with Saos-2 and 108 in the experiment with U2OS.

Regarding `C#C[C@]1(O)CC[C@H]2[C@@H]3CCC4=CC(=O)CC[C@@H]4[C@H]3CC[C@@]21C` [Norethindrone], the cell viability with Saos-2 was 71.2; with U2OS it was 97.9.

For the compound `Cc1onc(-c2ccccc2Cl)c1C(=O)N[C@@H]1C(=O)N2[C@@H]1SC(C)(C)[C@@H]2C(=O)O` [Cloxacillin·Na], the cell viability in the experiment with Saos-2 worked out at 107; with U2OS it was 88.8.

Regarding `O=C(N[C@H](CO)[C@H](O)c1ccc([N+](=O)[O-])cc1)C(Cl)Cl` [Chloramphenicol], the cell viability in the experiment with Saos-2 was 72.1; in the experiment with U2OS, 110.

`CC(C)NCC(O)COc1ccc(COCCOC(C)C)cc1` (stereo not given) [Bisoprolol Fumarate]: the cell viability came out at 116 in the experiment on Saos-2 and 122 with U2OS.

For the compound `C#C[C@]1(O)CC[C@H]2[C@@H]3CCC4=Cc5oncc5C[C@]4(C)[C@H]3CC[C@@]21C` [Danazol], the cell viability with Saos-2 amounted to 68.1; with U2OS it was 92.8.

For `O=C(O)CCCCCCCC(=O)O` [Azelaic Acid], the results for the cell viability with Saos-2 and in the experiment on U2OS were 127 and 103, respectively.

Turning to `CN(C)CCOC(c1ccc(Cl)cc1)c1ccccn1` (stereo not given) [Carbinoxamine Maleate], the cell viability in the experiment on Saos-2 was found to be 116; with U2OS, 73.9.

Take `CN(C)c1cc(NC(=O)CNC(C)(C)C)c(O)c2c1C[C@H]1C[C@H]3[C@H](N(C)C)C(O)=C(C(N)=O)C(=O)[C@@]3(O)C(O)=C1C2=O` [Tigecycline]: the cell viability came to 107 in the experiment with Saos-2 and 94.5 in the experiment with U2OS.

For the compound `CC(c1cc2ccccc2s1)N(O)C(N)=O` (stereo not given) [Zileuton], the cell viability worked out at 63.4 in the experiment with Saos-2 and 90.4 in the experiment with U2OS.

For the compound `Nc1nc2c(ncn2COCCO)c(=O)[nH]1` [Acyclovir], the cell viability with Saos-2 was 67.5; in the experiment with U2OS, 96.5.

`COc1ccccc1Oc1c(NS(=O)(=O)c2ccc(C(C)(C)C)cc2)nc(-c2ncccn2)nc1OCCO` [Bosentan]: the cell viability in the experiment with Saos-2 worked out at 67.5; with U2OS, 95.1.

In the case of `CCCN(CCC)S(=O)(=O)c1ccc(C(=O)O)cc1` [Probenecid], the figures for the cell viability with Saos-2 and with U2OS were 102 and 79.3, respectively.

Turning to `NCc1ccc(S(N)(=O)=O)cc1` [Mafenide], the cell viability in the experiment with Saos-2 stood at 105; with U2OS it was 93.6.

`CCCCC[C@H](O)/C=C/[C@H]1[C@H](O)CC(=O)[C@@H]1CCCCCCC(=O)O` [Prostaglandin E1]: the cell viability in the experiment with Saos-2 is 64.8; with U2OS it was 101.

As to `Cc1c(O)cccc1C(=O)N[C@@H](CSc1ccccc1)[C@H](O)CN1C[C@H]2CCCC[C@H]2C[C@H]1C(=O)NC(C)(C)C` [Nelfinavir Mesylate], the results for the cell viability in the experiment with Saos-2 and in the experiment with U2OS were 61.7 and 113, respectively.

For `C[C@]12CCC3=C4CCC(=O)C=C4CC[C@H]3[C@@H]1CC[C@@]2(O)CC#N` [Dienogest], the figures for the cell viability with Saos-2 and with U2OS were 114 and 108, respectively.

Regarding `CN(C)CCC=C1c2ccccc2CCc2ccccc21` [Amitriptyline·HCl], the results for the cell viability with Saos-2 and in the experiment on U2OS were 64.1 and 108, respectively.

Turning to `CN1CCC(=C2c3ccccc3C=Cc3ccccc32)CC1` [Cyproheptadine·HCl Sesquihydrate], the cell viability with Saos-2 is 60.7; in the experiment on U2OS, 107.

As to `CC(=O)CCCCn1c(=O)c2c(ncn2C)n(C)c1=O` [Pentoxifylline], the cell viability turned out to be 63.6 with Saos-2 and 93.9 in the experiment with U2OS.

With `NC[C@@H](O)c1ccc(O)c(O)c1` [L-Norepinephrine bitartrate monohydrate], the cell viability with Saos-2 stood at 61.4; in the experiment on U2OS it was 108.

In the case of `NC(=O)NO` [Hydroxyurea], the cell viability in the experiment on Saos-2 came out at 106; in the experiment on U2OS it was 109.

As to `CCCCN1CCCCC1C(=O)Nc1c(C)cccc1C` (stereo not given) [Bupivacaine hydrochloride monohydrate], the cell viability in the experiment with Saos-2 turned out to be 67; in the experiment on U2OS, 101.

Values taken from the supplement of paper PMC9433722.
